Values from PubChem BioAssay AID1224827 (NIAID, 2016)
The whole screen tested about 3,800 reagents; this is a part drawn at random. In the full data, about 2,200 (57%) got an active call. 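Active means a strong reporter change in either direction; calls are per siRNA, not per gene; qiagen siRNAs gave weaker effects.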 Reagents against one gene are numbered here. Not all columns of the deposit are shown. Reagent sequences are not shown.

Screen: 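Identify regulators of the macrophage TNF-alpha response to bacterial LPS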 (follow-up of hits)
Cells: RAW264.7 G9 mouse macrophage reporter clone
Reagent: single siRNA against mouse genes, 100 nM siRNA
Duration: siRNA for 2 days, then LPS about 16 h
Conditions: bacterial lipopolysaccharide (LPS), 10 ng/ml, cells fixed after overnight (about 16 h) stimulation
Measurement: 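TNF promoter reporter red fluorescence in nuclei, background subtracted, normalised per plate and to non-targeting control siRNA, as z-scores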
Scale: TNF reporter z-score, mean: higher = stronger Tnf promoter reporter signal
Rule for the call: 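An siRNA is called active when its mean z-score over replicates is at least +2 or at most -2; control wells get no call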

Slco2b1 #1 → TNF reporter z-score, mean: 11.8; Call: active
Slco2b1 #2 → TNF reporter z-score, mean: 2.66; Call: active
Slco2b1 #3 → TNF reporter z-score, mean: 2.14; Call: active
Slco2b1 #4 → TNF reporter z-score, mean: 2.67; Call: active
Slco2b1 #5 → TNF reporter z-score, mean: 1.33; Call: inactive
Slco2b1 #6 → TNF reporter z-score, mean: -1.61; Call: inactive
Nxnl1 #1 → TNF reporter z-score, mean: -2.33; Call: active
Nxnl1 #2 → TNF reporter z-score, mean: -4.65; Call: active
Nxnl1 #3 → TNF reporter z-score, mean: -5.7; Call: active
Nxnl1 #4 → TNF reporter z-score, mean: 3.27; Call: active
Nxnl1 #5 → TNF reporter z-score, mean: -0.7; Call: inactive
Nxnl1 #6 → TNF reporter z-score, mean: -3.04; Call: active

As entered above:
Slco2b1 #4, Call = active
Entry of Slco2b1 #1 under “Call”: active
